The data set deals with T1, OsTZF7 (Oryza sativa cv. Nip) (UniProt Q65X92).
T1 sequence (looked up, limits assumed): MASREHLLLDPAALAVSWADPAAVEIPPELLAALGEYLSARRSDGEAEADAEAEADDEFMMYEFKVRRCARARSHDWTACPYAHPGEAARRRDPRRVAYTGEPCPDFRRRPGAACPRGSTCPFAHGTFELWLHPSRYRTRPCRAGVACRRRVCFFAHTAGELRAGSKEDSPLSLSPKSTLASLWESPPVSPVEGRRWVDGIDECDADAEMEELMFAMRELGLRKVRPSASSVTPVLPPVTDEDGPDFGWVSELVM
The data set can be described thus: EMSA. The settings on record: 3 mM Mg2+, 5 uM Zn2+; 10 mM Tris-HCl pH 8.0, 40 mM KCl, 2 mM DTT (printed DDT), 3 mM MgCl2, 5 uM ZnCl2, 20% glycerol; ~60 ng RNA in 20 ul, room temperature 30 min; 6% native PAGE at 4 C; recombinant protein; label: none (SYBR Green stain); probe letters rebuilt from the primers and the genome; part of a longer molecule. (In general: Mobility shift assays separate free from complexed probe on a gel.)

Construct, isoform or probe ends are uncertain for at least one entry. Where a protein sequence is shown, tags need not be part of it.

“ACAAAUAAUAUAAUCCCUUCUAUUUAUUUAUUUAUACUUCAUCGCCAUCUCGAAUUCUCGAUGGAUCGAUCGUUAAUUAGCUACCUUGCUCCUUAAUUCCUUCAUGUAUUUGCUUCAGCUUCAGCUCAACGAUCGAUCACACAUUCACACUCUUGGAAUUGUAUGUAC [Os02g0829850 3'UTR ARE-like]”: the binding result is listed as “binds”.

On to “CCAUGCUUUAUUUAAUUUGUUCAGCUUGUAGAAAAUUCUUUCGAAAACAUGUAUUUGUAUAUGCACGAAUGAAUAGAUGGAGCUAUAUGUAUUUAUGCAC [Os01g0864500 3'UTR ARE-like]”, for which the binding result is “binds”.

For the origin of these results see PMC8899535.
